Measured values as given in patent publication US11401277B2, “Anti-bacterial heterocyclic compounds and their synthesis” (Bugworks Research, Inc., priority 2017, dated 2022).
In brackets after ≈: the same amount, converted by molar mass.

Assays:
Experiment in all cases: MIC studies in LB Media
Format in all cases: cell-based
[1] = tested on: A. baumannii ATCC 19606; details: Acinetobacter baumannii, ATCC19606, read-out: Minimum Inhibitory Concentration in LB Media, A. ba
Method: (§1) Bacterial cultures that were stored as glycerol stocks at −80° C. were sub cultured on LB agar plates to obtain isolated colonies. A single colony of each strain was cultured in LB broth. The cultures were incubated at 37° C., 200 rpm till they reach an optical density (OD at 600 nm) of 0.8 to 1. […] Test compounds were dissolved in dimethyl sulfoxide (DMSO) to a stock concentration of 4 mg/ml. A two-fold dilution series of this DMSO stock was prepared in a 96 well V bottom microtitre plate from rows A to H. A 3 μL volume of these dilutions were transferred to a 96-well flat bottom microtitre assay plate. Controls to monitor the effects of DMSO and media sterility were included. Each well was inoculated with 150 μL of the above diluted culture. The plates were incubated at 37° C. overnight in a humidified incubator. The following morning, the plates were read using a Spectrophotometer at 600 nm wavelength.

[2] = tested on: S. aureus ATCC 29213; details: Staphylococcus aureus, ATCC29213, MIC = 90% inhibition of growth, read-out: Minimum Inhibitory Concentration in LB Media, S. au
Method: as §1

[3] = tested on: Citrobacter freundii ATCC 43864; details: ATCC43864, read-out: Minimum Inhibitory Concentration in LB Media, C. fr
Method: as §1

[4] = tested on: E. faecalis ATCC 29212; details: Enterococcus faecalis, ATCC29212, read-out: Minimum Inhibitory Concentration in LB Media, E. fa
Method: as §1

[5] = tested on: Morganella morganii ATCC 25830; details: ATCC25830, read-out: Minimum Inhibitory Concentration in LB Media, M. mo
Method: as §1

[6] = tested on: E. coli ATCC 25922; details: Escherichia coli, ATCC25922, read-out: Minimum Inhibitory Concentration in LB Media, E. co
Method: as §1

With `O=C(O)c1cn(C2CC2)c2cc(N3CCNCC3)c(F)cc2c1=O` [Ciprofloxacin, ciprofloxacin, reference compound] the MIC [1] was 0.4 µg/mL (≈ 1.21 µM), the MIC [2] was 0.4 µg/mL (≈ 1.21 µM) and the MIC [3] was ≤ 0.006 µg/mL. The MIC [4] was 0.4 µg/mL (≈ 1.21 µM), the MIC [5] was ≤ 0.006 µg/mL and the MIC [6] was 0.012 µg/mL (≈ 0.0362 µM).
